Test results taken from patent US11142550B2, “Split inteins with exceptional splicing activity” (THE TRUSTEES OF PRINCETON UNIVERSITY, priority 2016, dated 2021).
At least one read-out could not be matched to a standard name with certainty.

Test system: split intein constructs with short native extein sequences
Experiment: in vitro protein trans-splicing (PTS) assay, RP-HPLC / ESI-MS kinetics
Type: biochemical
Conditions: 30° C., model exteins
Text: Thus, attention was focused on ‘second shell’ residues, those directly adjacent to the active site. To simplify this analysis, a batch mutagenesis strategy was employed in conjunction with a previously reported in vitro PTS assay.^5 This assay uses split intein constructs with short native extein sequences and allows the rates of branched intermediate formation (k1,k2) and its resolution to final splice products (k3) to be determined using a three state kinetic model.
Splicing reactions were carried out as adapted from a previously described protocol. […] For all splicing reactions containing either Npu^C-CFN or Cfa^C-CFN, reaction progress was monitored by RP-HPLC. […]
Kinetic analysis was carried out as previously described.^1 Briefly, five species (1-5) are separated by RP-HPLC, and peak areas are determined. For ESI-MS, peak areas are calculated for species 1-4. […] Each splicing reaction was carried out in triplicate with each replicate analyzed separately. […]
All splicing reactions comparing Npu and Cfa were separated by RP-HPLC with peak areas once again calculated using the manufacturer's software. For these reactions, peak areas for the starting material and branched intermediate (species 1 and 2) and product (species 3, 4, 5) were calculated. […]

With “Npu: DnaE split intein from Nostoc punctiforme PCC73102; SEQ ID NO: 5 and 6 [reference compound]” the “splicing t1/2” value was 50 s.
